PubChem BioAssay AID743454 | Peter MacCallum Cancer Centre, 2014
In all, the deposit lists about 18,000 reagents; this is a random part of them. Of all reagents, 450 (2.5%) are marked active. 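Single biological run; no consistent viability z cut-off exists, so the class columns, not z-scores, define the calls.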 Reagent sequences are not shown.

Assay: 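Knock-downs lowering viability or raising caspase 3/7 activity in vorinostat-treated resistant cells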 (primary screen)
Cells: human HCT116-VR colon cancer cells, selected for vorinostat resistance
Reagent: siRNA pool against human genes, 40 nM siRNA pool
Duration: vorinostat for 24 h, read-out about 72 h after transfection
Conditions: vorinostat at 2.5 µM final
Measured: 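Cell viability by CellTiter-Fluor and caspase 3/7 activity by luminescence, each scaled to mock wells per plate, duplicates averaged, then robust z-scored over all plates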
Direction: viability robust z-score: higher = more viable cells than screen typical; caspase robust z-score: higher = more caspase 3/7 activity than screen typical
Call rule: 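a knock-down is a hit when classed RV1 or RV2 for lowered viability, or CA1 or CA2 for caspase activation; those lethal without drug were dropped; hits were retested singly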

viability hit class,caspase hit class,viability robust z-score,caspase robust z-score,Call,gene symbol
no change,no change,0.76,-0.26,inactive,FAM133B
no change,no change,0.74,0.58,inactive,KRT31
no change,no change,0.24,-0.64,inactive,DDN
no change,no change,0.86,-0.2,inactive,NBPF7P
no change,no change,0.4,-0.78,inactive,LGR6
no change,no change,-1.64,0.29,inactive,ART5
no change,no change,-0.13,-0.38,inactive,MOGS
no change,no change,-0.6,3.33,inactive,ARL16
no change,no change,0.98,0.39,inactive,SH3KBP1
no change,no change,1.16,4.51,inactive,TRAF5
no change,no change,0.1,-0.09,inactive,SLC16A7
no change,no change,0.38,-0.19,inactive,NR3C2
no change,no change,0.15,-0.24,inactive,RSPH14
RV2 (reduced viability),no change,-3.25,-0.08,active,SPAG1
no change,no change,-0.24,-0.21,inactive,PDZK1
no change,no change,-0.44,0.16,inactive,CFAP70
no change,no change,-1.12,0.75,inactive,ZFPM1
no change,no change,-0.32,-0.05,inactive,SH3BGRL3
no change,no change,0.3,0.2,inactive,KCNK3
no change,no change,-2.76,-0.43,inactive,TAPBP
no change,no change,-0.84,1.82,inactive,RPN1
no change,no change,0.24,2.12,inactive,KCNMB1
no change,no change,-1.02,0.16,inactive,CEP20

2 neighbouring entries already listed, for reference:
viability hit class,caspase hit class,viability robust z-score,caspase robust z-score,Call,gene symbol
no change,no change,0.4,-0.78,inactive,LGR6
no change,no change,-1.64,0.29,inactive,ART5
